Sequences of proteins named here, by UniProt entry; tags and fusion partners are left off.
UniProt Q924A2: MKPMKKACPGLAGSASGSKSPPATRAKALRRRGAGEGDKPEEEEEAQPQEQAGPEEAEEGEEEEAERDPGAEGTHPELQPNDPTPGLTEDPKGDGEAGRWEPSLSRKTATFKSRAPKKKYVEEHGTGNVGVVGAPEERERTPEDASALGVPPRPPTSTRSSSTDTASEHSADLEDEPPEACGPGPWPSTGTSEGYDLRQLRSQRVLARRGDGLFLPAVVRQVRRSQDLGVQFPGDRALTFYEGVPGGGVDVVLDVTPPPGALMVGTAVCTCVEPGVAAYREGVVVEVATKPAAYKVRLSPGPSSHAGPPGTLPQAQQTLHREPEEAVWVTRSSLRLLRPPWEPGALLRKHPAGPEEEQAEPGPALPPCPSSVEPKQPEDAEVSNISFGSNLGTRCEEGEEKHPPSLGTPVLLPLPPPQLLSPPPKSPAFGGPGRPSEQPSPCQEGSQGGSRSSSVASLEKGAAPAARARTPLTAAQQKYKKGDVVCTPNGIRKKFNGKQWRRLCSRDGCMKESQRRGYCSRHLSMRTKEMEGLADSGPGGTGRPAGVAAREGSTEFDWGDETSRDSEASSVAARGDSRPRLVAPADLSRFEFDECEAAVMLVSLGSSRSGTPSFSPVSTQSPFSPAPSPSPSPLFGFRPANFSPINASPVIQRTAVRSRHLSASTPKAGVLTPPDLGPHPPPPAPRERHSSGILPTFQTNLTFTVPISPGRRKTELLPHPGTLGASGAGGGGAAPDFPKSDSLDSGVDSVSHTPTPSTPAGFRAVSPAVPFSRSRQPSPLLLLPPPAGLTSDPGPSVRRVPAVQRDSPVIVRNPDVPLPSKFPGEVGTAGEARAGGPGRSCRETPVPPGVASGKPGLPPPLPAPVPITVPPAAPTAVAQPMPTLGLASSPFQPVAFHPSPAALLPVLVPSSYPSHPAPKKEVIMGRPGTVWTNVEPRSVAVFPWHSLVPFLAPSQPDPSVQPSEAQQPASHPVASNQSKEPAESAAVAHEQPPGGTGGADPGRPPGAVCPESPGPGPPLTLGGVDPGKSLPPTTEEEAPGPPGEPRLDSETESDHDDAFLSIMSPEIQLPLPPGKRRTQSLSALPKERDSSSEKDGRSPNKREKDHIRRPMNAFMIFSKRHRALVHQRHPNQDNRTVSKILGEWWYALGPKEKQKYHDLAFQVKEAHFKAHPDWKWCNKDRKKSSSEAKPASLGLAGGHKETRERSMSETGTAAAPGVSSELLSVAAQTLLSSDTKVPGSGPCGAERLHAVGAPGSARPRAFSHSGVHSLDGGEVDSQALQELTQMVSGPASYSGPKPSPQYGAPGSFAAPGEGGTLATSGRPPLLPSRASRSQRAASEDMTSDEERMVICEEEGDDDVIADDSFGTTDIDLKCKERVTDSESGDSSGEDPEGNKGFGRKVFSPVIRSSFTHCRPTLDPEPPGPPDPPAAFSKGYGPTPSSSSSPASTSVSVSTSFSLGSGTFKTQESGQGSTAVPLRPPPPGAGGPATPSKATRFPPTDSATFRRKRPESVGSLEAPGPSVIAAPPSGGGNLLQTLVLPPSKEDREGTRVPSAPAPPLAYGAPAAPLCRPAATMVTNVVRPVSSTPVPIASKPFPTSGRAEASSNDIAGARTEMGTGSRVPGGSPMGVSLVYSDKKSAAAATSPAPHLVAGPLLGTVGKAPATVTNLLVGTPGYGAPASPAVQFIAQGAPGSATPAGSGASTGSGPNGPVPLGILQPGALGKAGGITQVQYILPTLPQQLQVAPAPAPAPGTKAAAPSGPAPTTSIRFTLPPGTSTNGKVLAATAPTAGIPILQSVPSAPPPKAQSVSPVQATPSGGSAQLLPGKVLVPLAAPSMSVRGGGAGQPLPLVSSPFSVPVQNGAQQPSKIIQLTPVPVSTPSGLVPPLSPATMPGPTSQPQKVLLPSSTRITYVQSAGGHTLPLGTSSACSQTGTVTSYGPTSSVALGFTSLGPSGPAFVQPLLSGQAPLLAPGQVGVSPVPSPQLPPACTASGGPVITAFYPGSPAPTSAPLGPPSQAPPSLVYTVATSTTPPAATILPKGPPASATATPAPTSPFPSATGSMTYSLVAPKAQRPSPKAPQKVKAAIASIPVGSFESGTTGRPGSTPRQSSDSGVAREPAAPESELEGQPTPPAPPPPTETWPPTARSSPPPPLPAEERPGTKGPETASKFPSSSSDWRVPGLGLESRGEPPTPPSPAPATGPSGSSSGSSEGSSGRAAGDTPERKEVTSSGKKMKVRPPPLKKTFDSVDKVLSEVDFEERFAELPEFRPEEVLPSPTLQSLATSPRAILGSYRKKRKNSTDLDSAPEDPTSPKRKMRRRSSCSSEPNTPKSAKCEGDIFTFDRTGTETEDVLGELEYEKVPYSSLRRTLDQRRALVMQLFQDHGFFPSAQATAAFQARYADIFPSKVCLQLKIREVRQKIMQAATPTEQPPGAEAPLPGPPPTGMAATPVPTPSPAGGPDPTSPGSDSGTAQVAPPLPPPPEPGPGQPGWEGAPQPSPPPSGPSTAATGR
UniProt Q3TKT4: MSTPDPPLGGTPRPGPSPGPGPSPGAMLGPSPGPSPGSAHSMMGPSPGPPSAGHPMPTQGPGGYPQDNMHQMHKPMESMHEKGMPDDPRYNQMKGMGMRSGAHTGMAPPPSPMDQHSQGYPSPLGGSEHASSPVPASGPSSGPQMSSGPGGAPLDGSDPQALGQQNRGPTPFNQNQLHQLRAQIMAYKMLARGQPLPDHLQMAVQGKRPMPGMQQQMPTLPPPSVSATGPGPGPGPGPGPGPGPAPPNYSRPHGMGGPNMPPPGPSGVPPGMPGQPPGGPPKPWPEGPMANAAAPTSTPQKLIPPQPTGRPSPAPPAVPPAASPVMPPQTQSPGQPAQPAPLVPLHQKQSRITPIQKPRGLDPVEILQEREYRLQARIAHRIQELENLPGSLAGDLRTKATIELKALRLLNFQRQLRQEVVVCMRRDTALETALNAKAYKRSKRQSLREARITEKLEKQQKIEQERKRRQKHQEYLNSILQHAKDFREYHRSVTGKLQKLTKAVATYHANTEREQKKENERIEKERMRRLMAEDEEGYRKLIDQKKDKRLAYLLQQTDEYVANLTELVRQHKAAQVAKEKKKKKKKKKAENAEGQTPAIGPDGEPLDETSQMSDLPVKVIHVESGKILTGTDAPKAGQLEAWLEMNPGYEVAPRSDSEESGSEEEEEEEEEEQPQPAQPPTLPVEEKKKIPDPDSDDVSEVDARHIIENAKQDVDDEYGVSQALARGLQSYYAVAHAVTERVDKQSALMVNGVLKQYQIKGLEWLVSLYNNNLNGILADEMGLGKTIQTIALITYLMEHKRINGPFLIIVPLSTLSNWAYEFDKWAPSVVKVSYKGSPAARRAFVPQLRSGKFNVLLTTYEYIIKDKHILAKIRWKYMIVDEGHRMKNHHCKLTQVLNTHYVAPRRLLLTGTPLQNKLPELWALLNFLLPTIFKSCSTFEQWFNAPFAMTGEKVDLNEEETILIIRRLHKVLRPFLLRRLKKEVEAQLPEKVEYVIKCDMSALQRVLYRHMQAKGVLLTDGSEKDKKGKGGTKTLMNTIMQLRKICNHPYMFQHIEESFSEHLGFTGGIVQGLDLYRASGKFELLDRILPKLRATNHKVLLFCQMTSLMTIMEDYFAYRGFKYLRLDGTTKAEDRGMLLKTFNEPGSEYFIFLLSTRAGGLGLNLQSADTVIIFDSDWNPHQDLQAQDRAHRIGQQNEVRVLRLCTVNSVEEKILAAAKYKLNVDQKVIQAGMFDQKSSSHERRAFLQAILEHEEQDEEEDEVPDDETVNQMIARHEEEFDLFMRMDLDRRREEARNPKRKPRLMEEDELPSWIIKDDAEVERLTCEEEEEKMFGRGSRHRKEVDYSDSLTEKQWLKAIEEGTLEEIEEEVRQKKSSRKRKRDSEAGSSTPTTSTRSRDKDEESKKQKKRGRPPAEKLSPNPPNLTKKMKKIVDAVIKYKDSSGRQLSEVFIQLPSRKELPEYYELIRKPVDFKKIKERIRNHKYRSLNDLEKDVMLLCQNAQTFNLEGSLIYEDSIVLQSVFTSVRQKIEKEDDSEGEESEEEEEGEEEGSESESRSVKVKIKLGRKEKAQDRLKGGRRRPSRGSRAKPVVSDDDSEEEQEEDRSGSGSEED
UniProt Q8K4L3: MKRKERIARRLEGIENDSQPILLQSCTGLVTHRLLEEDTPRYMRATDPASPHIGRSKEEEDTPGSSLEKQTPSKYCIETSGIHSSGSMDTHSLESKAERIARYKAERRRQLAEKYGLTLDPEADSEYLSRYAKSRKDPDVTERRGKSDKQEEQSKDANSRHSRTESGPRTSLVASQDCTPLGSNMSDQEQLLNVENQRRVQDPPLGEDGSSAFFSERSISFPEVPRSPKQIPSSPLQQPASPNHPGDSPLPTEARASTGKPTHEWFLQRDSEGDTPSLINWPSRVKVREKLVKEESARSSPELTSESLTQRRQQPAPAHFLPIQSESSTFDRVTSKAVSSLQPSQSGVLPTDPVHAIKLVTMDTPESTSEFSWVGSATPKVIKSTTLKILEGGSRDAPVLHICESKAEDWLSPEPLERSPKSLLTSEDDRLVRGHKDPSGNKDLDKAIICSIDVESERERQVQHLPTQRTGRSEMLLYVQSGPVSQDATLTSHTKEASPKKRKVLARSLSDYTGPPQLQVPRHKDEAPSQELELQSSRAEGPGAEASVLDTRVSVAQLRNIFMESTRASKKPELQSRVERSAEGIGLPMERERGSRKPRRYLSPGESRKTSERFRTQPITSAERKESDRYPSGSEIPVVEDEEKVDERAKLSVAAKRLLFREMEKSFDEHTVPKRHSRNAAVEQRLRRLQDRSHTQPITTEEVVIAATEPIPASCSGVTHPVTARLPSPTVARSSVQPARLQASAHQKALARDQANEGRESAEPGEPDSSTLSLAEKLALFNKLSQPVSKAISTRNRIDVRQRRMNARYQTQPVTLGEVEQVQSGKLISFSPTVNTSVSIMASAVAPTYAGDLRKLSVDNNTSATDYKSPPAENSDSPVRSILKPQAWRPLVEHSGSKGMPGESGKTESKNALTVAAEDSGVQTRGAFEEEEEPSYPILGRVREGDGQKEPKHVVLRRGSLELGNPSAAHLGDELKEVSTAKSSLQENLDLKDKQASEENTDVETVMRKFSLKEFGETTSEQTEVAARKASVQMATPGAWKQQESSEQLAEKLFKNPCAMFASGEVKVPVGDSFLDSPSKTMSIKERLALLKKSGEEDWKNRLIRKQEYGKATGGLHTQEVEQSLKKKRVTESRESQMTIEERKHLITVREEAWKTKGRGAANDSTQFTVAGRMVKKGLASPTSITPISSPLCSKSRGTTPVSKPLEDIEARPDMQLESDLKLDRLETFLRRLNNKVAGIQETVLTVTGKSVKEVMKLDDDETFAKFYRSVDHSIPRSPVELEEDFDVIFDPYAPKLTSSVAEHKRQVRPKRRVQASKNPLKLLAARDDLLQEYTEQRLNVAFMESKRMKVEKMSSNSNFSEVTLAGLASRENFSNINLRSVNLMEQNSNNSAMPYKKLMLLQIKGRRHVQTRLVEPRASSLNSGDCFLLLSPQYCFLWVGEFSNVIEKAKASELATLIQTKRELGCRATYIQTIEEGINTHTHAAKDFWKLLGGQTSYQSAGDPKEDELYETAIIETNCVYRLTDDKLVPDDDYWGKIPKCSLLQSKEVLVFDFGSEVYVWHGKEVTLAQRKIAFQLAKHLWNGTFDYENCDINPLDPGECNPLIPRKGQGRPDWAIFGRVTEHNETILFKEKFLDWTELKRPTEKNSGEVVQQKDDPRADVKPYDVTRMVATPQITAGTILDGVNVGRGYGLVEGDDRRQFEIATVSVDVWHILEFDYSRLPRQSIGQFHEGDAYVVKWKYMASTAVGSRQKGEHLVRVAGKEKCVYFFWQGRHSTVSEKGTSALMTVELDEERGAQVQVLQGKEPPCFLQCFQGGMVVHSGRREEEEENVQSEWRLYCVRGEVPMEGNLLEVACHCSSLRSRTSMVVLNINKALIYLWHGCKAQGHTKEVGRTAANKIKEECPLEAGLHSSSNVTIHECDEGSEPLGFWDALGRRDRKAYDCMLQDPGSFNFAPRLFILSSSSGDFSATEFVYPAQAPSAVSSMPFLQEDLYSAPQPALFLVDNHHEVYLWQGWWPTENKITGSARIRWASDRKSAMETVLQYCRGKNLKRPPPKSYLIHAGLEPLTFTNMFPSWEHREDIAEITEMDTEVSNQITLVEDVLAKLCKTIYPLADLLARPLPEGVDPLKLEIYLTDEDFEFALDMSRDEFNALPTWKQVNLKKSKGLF

In article doi:10.1101/799536:

B1: ACLY (protein, UniProt Q91V92 1-1091)
chain: MSAKAISEQTGKELLYKYICTTSAIQNRFKYARVTPDTDWAHLLQDHPWLLSQSLVVKPDQLIKRRGKLGLVGVNLSLDGVKSWLKPRLGHEATVGKAKGFLKNFLIEPFVPHSQAEEFYVCIYATREGDYVLFHHEGGVDVGDVDAKAQKLLVGVDEKLNTEDIKRHLLVHAPEDKKEVLASFISGLFNFYEDLYFTYLEINPLVVTKDGVYILDLAAKVDATADYICKVKWGDIEFPPPFGREAYPEEAYIADLDAKSGASLKLTLLNPKGRIWTMVAGGGASVVYSDTICDLGGVNELANYGEYSGAPSEQQTYDYAKTILSLMTREKHPEGKILIIGGSIANFTNVAATFKGIVRAIRDYQGPLKEHEVTIFVRRGGPNYQEGLRVMGEVGKTTGIPIHVFGTETHMTAIVGMALGHRPIPNQPPTAAHTANFLLNASGSTSTPAPSRTASFSESRADEVAPAKKAKPAMPQGKSATLFSRHTKAIVWGMQTRAVQGMLDFDYVCSRDEPSVAAMVYPFTGDHKQKFYWGHKEILIPVFKNMADAMKKHPEVDVLINFASLRSAYDSTMETMNYAQIRTIAIIAEGIPEALTRKLIKKADQKGVTIIGPATVGGIKPGCFKIGNTGGMLDNILASKLYRPGSVAYVSRSGGMSNELNNIISRTTDGVYEGVAIGGDRYPGSTFMDHVLRYQDTPGVKMIVVLGEIGGTEEYKICRGIKEGRLTKPVVCWCIGTCATMFSSEVQFGHAGACANQASETAVAKNQALKEAGVFVPRSFDELGEIIQSVYEDLVAKGAIVPAQEVPPPTVPMDYSWARELGLIRKPASFMTSICDERGQELIYAGMPITEVFKEEMGIGGVLGLLWFQRRLPKYSCQFIEMCLMVTADHGPAVSGAHNTIICARAGKDLVSSLTSGLLTIGDRFGGALDAAAKMFSKAFDSGIIPMEFVNKMKKEGKLIMGIGHRVKSINNPDMRVQILKDFVKQHFPATPLLDYALEVEKITTSKKPNLILNVDGFIGVAFVDMLRNCGSFTREEADEYVDIGALNGIFVLGRSMGFIGHYLDQKRLKQGLYRHPWDDISYVLPEHMSM

The molecules below were run against Capicua (CIC) (mouse (endogenous in P1 and P0.5 brain)) (UniProt Q924A2) (assay: affinity purification with mass spectrometry).

For ARID1A (from UniProt A2BH40 1-2283), which binding is on record?
Its binding is “binds”.

Which binding does the source give for ARID1B (from UniProt E9Q4N7 1-2306) here?
Its binding is “binds”.

Which binding does the source give for “BRG1 (SMARCA4) (from UniProt Q3TKT4 1-1613)” here?
Its binding is “binds”.

Which binding does the source give for “SMARCA2 (BAF190B, BRM) (from UniProt Q6DIC0 1-1577)” here?
Its binding is “binds”.

Which binding does the source give for “SMARCC1 (BAF155) (from UniProt P97496 1-1104)” here?
Its binding is “binds”.

For “SVIL, an actin-binding protein encoded by supervillin gene (from UniProt Q8K4L3 1-2170)”, which binding is on record?
The binding was “binds”.

B1 was tested. Which binding did it give?
The binding was “binds”.

Results are given in words; binding and its absence hold for the method and conditions named. Binding seen in cells or lysates may run through a third protein. Here binding means that the protein was enriched with, or labelled near, the bait; the list need not be complete.
